In PubChem BioAssay AID2685 (National Center for Advancing Translational Sciences (NCATS), 2010):
The list shows a part of the results. Shown are side measurements of this screen, not its main read-out; they come without a call. Compounds called inactive in the main read-out are mostly missing here. The note in brackets gives the kind of curve behind each potency; many fits are weak.

Assay: qHTS Assay for Lipid Storage Modulators in Drosophila S3 Cells;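 as to cell number change: cells counted by Cell Tracker Red CMTPX staining in the red channel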
Conditions: BODIPY lipid droplet fluorescence, 18-24 h; for cell number change: measured here: cell count max response, cells fed with added oleic acid
How it was run: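 Drosophila S3 cells loaded with oleic acid (400 uM, as added) and compounds at several concentrations; lipid droplets imaged by 488-nm laser-scanning cytometry, 500–530 nm intensity and object ratio to cell channel. Percent activity normalized to 20 uM Triacsin C.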

[1] = measured here: lipid fluorescence (Fed channel) AC50, cells fed with added oleic acid
[2] = measured here: cell number channel AC50, cells fed with added oleic acid

Structure (SMILES): O=C(NCCOc1ccc(Cl)cc1)c1cccc(S(=O)(=O)N2CCCC2)c1
- cell number change: -11.7%
- AC50 [1]: 0.00651 µM [falling, full curve, poor fit]

Structure (SMILES): Cc1cc(C)cc(OCc2ccc(C(=O)O)o2)c1
- cell number change: -138%
- AC50 [2]: 25.9 µM [falling, partial curve]
- AC50 [1]: 6.51 µM [falling, partial curve]

Structure (SMILES): COc1nc(Cl)cn(-c2ccc(Cl)cc2)c1=O
- cell number change: -1.07%
- AC50 [2]: 0.116 µM [rising, full curve, poor fit]

Structure (SMILES): O=C(CCCc1nc(-c2ccccc2)no1)N1CCOCC1
- cell number change: 7.54%
- AC50 [1]: 0.461 µM [rising, single point]

Structure (SMILES): C(=N\n1cnnc1)/c1cccc2ccccc12
- cell number change: 12.2%
- AC50 [1]: 0.116 µM [rising, full curve]

Structure (SMILES): Cn1c(=O)cc(SCC(=O)N2CCN(C(=O)c3ccco3)CC2)c2ccccc21
- AC50 [1]: 0.146 µM [rising, full curve, poor fit]

Structure (SMILES): CCOc1ccc(NC(=S)N2CCCC2)cc1
- cell number change: 6.36%
- AC50 [1]: 0.411 µM [falling, partial curve, poor fit]

Structure (SMILES): CCOC(=O)[C@H]1[C@H]2COc3ccccc3[C@@H]2N2C(=O)c3cc(F)ccc3NC(=O)[C@@]12C
- cell number change: 11.4%
- AC50 [1]: 32.6 µM [falling, single point]

Structure (SMILES): Cc1onc(-c2ccccc2Cl)c1C(=O)NC1CCCCCC1
- cell number change: 6.31%
- AC50 [1]: 0.58 µM [rising, single point]

Structure (SMILES): CCN(CC)CCNC(=O)c1ccc(Cl)c(S(=O)(=O)Nc2ccc(Cl)cc2)c1
- cell number change: -54.8%
- AC50 [2]: 2.59 µM [falling, full curve]

Structure (SMILES): CC(C)(C)c1cc(NCCCn2ccnc2)n2ncc(-c3ccc(Cl)cc3)c2n1
- cell number change: -52.1%
- AC50 [2]: 29.1 µM [falling, single point]
- AC50 [1]: 25.9 µM [falling, partial curve]

Structure (SMILES): CSc1nc(=S)n(-c2ccc([N+](=O)[O-])cc2)c(C)c1C(C)=O
- cell number change: -13.2%
- AC50 [1]: 13 µM [rising, partial curve]

Structure (SMILES): Nc1nc(SCC(=O)NCC2CCCO2)[nH]c(=O)c1NC(=O)c1ccc(F)c(F)c1 (configuration not stated)
- cell number change: -11.9%
- AC50 [1]: 6.51 µM [rising, single point]

Structure (SMILES): Cc1cc(C)c2c(c1)/C(=N/NS(=O)(=O)c1ccccc1)CCC2
- cell number change: 8.38%
- AC50 [1]: 1.46 µM [rising, full curve]

Structure (SMILES): CC1(C(=O)O)Sc2[nH]c(=O)sc2C2c3ccccc3OC(=O)C21 (configuration not stated)
- cell number change: -26.9%
- AC50 [1]: 0.13 µM [rising, full curve, poor fit]

Structure (SMILES): CC(=O)N1c2ccc(S(=O)(=O)N3CCCCC3)cc2CC1C(=O)Nc1ccc(C)cc1 (configuration not stated)
- cell number change: 2.83%
- AC50 [1]: 29.1 µM [rising, single point]

Structure (SMILES): COc1ccc(N(C)C(=O)c2cc3c(s2)-c2ccc(Cl)cc2S(=O)(=O)C3)c(OC)c1
- cell number change: 14%
- AC50 [1]: 6.51 µM [rising, single point]

Structure (SMILES): COc1ccccc1NC(=O)C(NC(=O)c1ccc(C)cc1)c1ccccc1 (configuration not stated)
- cell number change: -37.8%
- AC50 [2]: 32.6 µM [falling, partial curve, poor fit]

Structure (SMILES): C/C(=N\NC(=O)c1ccncc1)c1cccc(NC(=O)c2ccc(Cl)s2)c1
- cell number change: -16.4%

Structure (SMILES): COc1ccccc1C1C(C(C)=O)=C(C)N=c2s/c(=C\c3cc(OC)c(OC)c(OC)c3)c(=O)n21 (configuration not stated)
- cell number change: -27.8%
- AC50 [1]: 18.4 µM [falling, single point]

Structure (SMILES): O=[N+]([O-])c1ccc(-c2c[nH]c(=S)[nH]2)cc1
- AC50 [2]: 4.61 µM [falling, single point]

Structure (SMILES): O=C(Nc1nnc(-c2cccs2)s1)C1CC1
- cell number change: 6.16%
- AC50 [2]: 6.51 µM [rising, single point]

Structure (SMILES): CCCc1nc(SCC(=O)N2CCCc3ccccc32)c2c(=O)n(C)c(=O)n(C)c2n1
- cell number change: 47%
- AC50 [2]: 0.58 µM [rising, partial curve]

Structure (SMILES): CC12CCC(C(=O)NCc3ccc4c(c3)OCO4)(OC1=O)C2(C)C (configuration not stated)
- cell number change: -8.07%

Structure (SMILES): COCCc1nnc(NC(=O)Cc2ccccc2)s1
- cell number change: -10.1%
- AC50 [2]: 0.103 µM [falling, full curve, poor fit]
- AC50 [1]: 29.1 µM [falling, partial curve]

Structure (SMILES): C/C(=N\Nc1ccc(Cl)cc1)c1ccncc1
- cell number change: 19.1%

Structure (SMILES): CCN(Cc1ccccc1)S(=O)(=O)c1ccc(OC)cc1
- cell number change: 27.7%

Structure (SMILES): CC(C)(C)CC(=O)Nc1nnc(SCC(=O)NC2CCCCC2)s1
- cell number change: -4.84%
- AC50 [1]: 29.1 µM [falling, single point]

Structure (SMILES): COc1ccc(OCC(=O)OCCN2C(=O)c3ccccc3C2=O)cc1
- cell number change: 1.48%

Structure (SMILES): CC(=O)NC(CC(=O)Oc1ccc(C)cc1Br)c1ccccc1 (configuration not stated)
- cell number change: 7.03%

Structure (SMILES): Cc1ccc(-c2nc3cc(Cl)ccc3o2)cc1
- cell number change: 8.52%
- AC50 [1]: 3.66 µM [rising, partial curve]

Structure (SMILES): Cc1cc([N+](=O)[O-])nn1CCCC(=O)NCc1ccccc1
- cell number change: 50.9%
- AC50 [2]: 29.1 µM [rising, single point]

Structure (SMILES): C/C(=N/OC(=O)c1cccc(C(F)(F)F)c1)c1cnccn1
- cell number change: -41.6%

Structure (SMILES): CC(C)Cn1c(SCc2nnc(-c3cccs3)o2)nc(O)cc1=O
- cell number change: 19.7%

Structure (SMILES): COc1ccc(CNC(=O)CNC(=O)c2ccc(Br)o2)cc1OC
- cell number change: 1.17%
- AC50 [1]: 3.26 µM [rising, partial curve, poor fit]

Structure (SMILES): CSc1cccc(NC(=S)Nc2ccc(F)cc2)c1
- cell number change: 11.1%
- AC50 [1]: 6.51 µM [rising, single point]

Structure (SMILES): C#CCN(Cc1ccccc1)S(=O)(=O)C=C
- cell number change: 11%
- AC50 [1]: 0.00461 µM [rising, full curve, poor fit]

Structure (SMILES): Cc1ccccc1OCCn1nc(C(=O)O)c2ccccc2c1=O
- cell number change: 6.81%
- AC50 [1]: 0.82 µM [rising, full curve]

Structure (SMILES): Cc1ccc(C)c(S(=O)(=O)N(C)C2CCS(=O)(=O)C2)c1 (configuration not stated)
- cell number change: 1.41%

Structure (SMILES): CCCc1[nH]nc2c1C(c1cn[nH]c1-c1ccc(F)cc1)C(C#N)=C(N)O2 (configuration not stated)
- cell number change: -21.6%
- AC50 [1]: 1.03 µM [falling, single point]

Structure (SMILES): COc1ccc(CCNC(=O)CN(c2ccc(OC)c(OC)c2)S(=O)(=O)c2ccc(C)cc2)cc1
- cell number change: -32.5%
- AC50 [2]: 0.164 µM [falling, full curve, poor fit]

Structure (SMILES): CCc1ccc(NC(=O)C2CCN(C(=O)[C@@H]3Cc4ccccc4CN3)CC2)cc1
- cell number change: -11.6%
- AC50 [1]: 20.6 µM [rising, single point]

Structure (SMILES): NC(=O)CC(NC(=O)Cc1ccc(Br)cc1)c1ccc(NC2CCC2)c([N+](=O)[O-])c1 (configuration not stated)
- cell number change: 7.96%
- AC50 [1]: 10.3 µM [rising, partial curve]

Structure (SMILES): CNC(=O)COC(=O)/C=C/c1ccco1
- cell number change: -1.58%

Structure (SMILES): COc1ccccc1N1CCN(/N=C/c2ccc([N+](=O)[O-])cc2)CC1
- cell number change: -49%
- AC50 [2]: 16.4 µM [falling, partial curve, poor fit]
- AC50 [1]: 20.6 µM [falling, partial curve]

Structure (SMILES): COc1ccc(Sc2nc3ccccc3n3c(C(F)(F)F)nnc23)cc1
- cell number change: -10.3%
- AC50 [1]: 0.00517 µM [falling, full curve, poor fit]

Structure (SMILES): Cc1ccc(C)c2sc(NC(=O)c3ccc(N4C(=O)CCC4=O)cc3)nc12
- AC50 [1]: 1.46 µM [rising, full curve]

Structure (SMILES): COc1ccccc1NC(=O)CSc1nncn1-c1ccccc1
- cell number change: -26.9%
- AC50 [2]: 0.0291 µM [falling, full curve, poor fit]

Structure (SMILES): O=C(CSc1nc(C2CC2)nc2ccccc12)Nc1ccccc1N1CCOCC1
- cell number change: -13.3%
- AC50 [2]: 6.51 µM [falling, single point]
- AC50 [1]: 6.51 µM [falling, partial curve]

Structure (SMILES): CC(C)(C)C(=O)NC(Nc1cccc2cccnc12)C(Cl)(Cl)Cl (configuration not stated)
- cell number change: 5.59%
- AC50 [1]: 6.51 µM [falling, partial curve]

Structure (SMILES): CCCNC(=S)N1CCN(C(c2ccccc2)c2ccccc2)CC1
- cell number change: 27.5%
- AC50 [1]: 14.6 µM [rising, partial curve]

Structure (SMILES): CO/C(N)=C(\C#N)N=Cc1ccccc1Cl
- cell number change: 34.2%
- AC50 [2]: 18.4 µM [rising, single point]
- AC50 [1]: 20.6 µM [rising, single point]

Structure (SMILES): CC1(C)CNC(=O)c2sc(N3CCOCC3)nc2C1
- cell number change: -53.2%
- AC50 [2]: 29.1 µM [falling, single point]
- AC50 [1]: 29.1 µM [falling, single point]

Structure (SMILES): Cc1ccc(-c2noc(CSc3nnnn3C3CCCCC3)n2)cc1
- cell number change: 10.7%
- AC50 [2]: 2.06 µM [rising, partial curve]
- AC50 [1]: 29.1 µM [rising, single point]

Structure (SMILES): CSc1ccccc1-n1nnnc1SCC(=O)Nc1ccccc1C
- AC50 [2]: 0.13 µM [rising, full curve]

Structure (SMILES): Cc1nccn1CC(=O)N/N=C/c1ccccc1O
- cell number change: 12.2%
- AC50 [1]: 0.259 µM [falling, partial curve, poor fit]

Structure (SMILES): COc1ccc(NC(=S)Nc2ccc(F)cc2)cc1
- cell number change: -15%
- AC50 [1]: 10.3 µM [falling, partial curve]

Structure (SMILES): COCCCn1c(=O)/c(=C\c2ccccc2OC(F)F)s/c1=C(/C#N)C(N)=O
- cell number change: 18.3%
- AC50 [1]: 0.326 µM [rising, full curve, poor fit]

Structure (SMILES): CCN(Cc1ccccc1)C(=O)Cn1c(=O)n(CCC(=O)N2CCCCC2)c(=O)c2sccc21
- cell number change: -26.3%

Structure (SMILES): CC1=C(C(=O)OCc2ccccc2)C(c2cccnc2)c2c(n(C)c(=O)n(C)c2=O)N1 (configuration not stated)
- cell number change: -16.2%
- AC50 [1]: 16.4 µM [falling, partial curve, poor fit]

Structure (SMILES): Cc1c(OCC(=O)NC2CC(C)(C)NC(C)(C)C2)ccc2c3c(c(=O)oc12)CCC3
- AC50 [1]: 25.9 µM [rising, partial curve]

Structure (SMILES): COc1cc(/C=C2\CC/C(=C\c3cc(OC)c(OC)c(OC)c3)C2=O)cc(OC)c1OC
- cell number change: 48.2%
- AC50 [2]: 6.51 µM [falling, single point]
- AC50 [1]: 6.51 µM [rising, single point]
